These are yes or no findings as the source states them, for the method shown. Some results given as binding are weak or reduced against the parent protein; the word gives no strength. Tags and fused reporters may be left off the sequences shown.
Target: T1, FLAG-p160 (Myb-binding protein p160) (UniProt Q7TPV4)
T1 sequence: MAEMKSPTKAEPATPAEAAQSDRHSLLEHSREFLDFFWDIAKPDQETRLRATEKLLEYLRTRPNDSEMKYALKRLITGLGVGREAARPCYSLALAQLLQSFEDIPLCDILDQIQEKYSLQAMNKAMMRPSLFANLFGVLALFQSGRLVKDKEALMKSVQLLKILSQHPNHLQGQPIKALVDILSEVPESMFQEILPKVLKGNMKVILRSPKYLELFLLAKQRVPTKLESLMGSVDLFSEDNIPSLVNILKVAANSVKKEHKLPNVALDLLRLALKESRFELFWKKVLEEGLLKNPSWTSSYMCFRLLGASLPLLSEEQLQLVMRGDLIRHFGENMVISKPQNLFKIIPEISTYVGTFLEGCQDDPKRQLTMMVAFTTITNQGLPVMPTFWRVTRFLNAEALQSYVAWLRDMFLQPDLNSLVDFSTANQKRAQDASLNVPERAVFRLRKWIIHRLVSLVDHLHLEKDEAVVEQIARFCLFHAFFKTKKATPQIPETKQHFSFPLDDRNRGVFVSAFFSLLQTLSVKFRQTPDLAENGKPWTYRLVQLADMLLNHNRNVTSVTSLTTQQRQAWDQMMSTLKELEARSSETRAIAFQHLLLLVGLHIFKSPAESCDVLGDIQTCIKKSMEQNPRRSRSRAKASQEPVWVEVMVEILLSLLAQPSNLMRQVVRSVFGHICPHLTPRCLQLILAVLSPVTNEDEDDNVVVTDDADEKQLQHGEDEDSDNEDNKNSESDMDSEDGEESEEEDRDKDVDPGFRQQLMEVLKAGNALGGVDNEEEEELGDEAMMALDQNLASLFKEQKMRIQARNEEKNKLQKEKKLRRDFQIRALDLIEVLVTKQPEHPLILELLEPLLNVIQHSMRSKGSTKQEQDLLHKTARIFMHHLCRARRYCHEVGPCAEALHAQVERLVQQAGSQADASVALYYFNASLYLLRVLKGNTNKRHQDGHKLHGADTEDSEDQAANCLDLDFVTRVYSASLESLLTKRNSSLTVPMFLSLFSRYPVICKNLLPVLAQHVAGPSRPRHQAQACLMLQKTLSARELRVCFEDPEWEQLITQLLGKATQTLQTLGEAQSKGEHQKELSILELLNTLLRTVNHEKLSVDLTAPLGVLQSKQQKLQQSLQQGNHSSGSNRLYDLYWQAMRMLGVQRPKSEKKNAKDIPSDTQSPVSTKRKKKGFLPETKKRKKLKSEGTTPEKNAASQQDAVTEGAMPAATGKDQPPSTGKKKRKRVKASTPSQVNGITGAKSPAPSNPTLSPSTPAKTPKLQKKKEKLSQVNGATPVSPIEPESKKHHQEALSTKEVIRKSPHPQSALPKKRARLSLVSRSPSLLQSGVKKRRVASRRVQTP
Assay: far-Western, overlay or dot blot; FLAG-p160 immunoprecipitated from transfected 293T cells, fractionated by SDS-PAGE and transferred to nitrocellulose; blot probed with bacterially-produced purified GST-VHL (GST as control probe, FLAG empty vector as control lane); both purified

By UniProt entry, the sequences of proteins in these tests, tags left out.
UniProt P40337: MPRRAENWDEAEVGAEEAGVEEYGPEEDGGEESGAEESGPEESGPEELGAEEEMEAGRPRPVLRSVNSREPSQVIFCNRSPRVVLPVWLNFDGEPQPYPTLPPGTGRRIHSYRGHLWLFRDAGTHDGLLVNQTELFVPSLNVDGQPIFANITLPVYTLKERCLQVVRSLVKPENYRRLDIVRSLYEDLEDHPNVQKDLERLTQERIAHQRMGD

binding: binds
Substance: GST-VHL (from UniProt P40337 1-213)

Source: PMC3046137
